From patent publication US20210171576A1, “METHODS FOR TREATING CANCER WITH ACYLDEPSIPEPTIDE ANALOGS” (priority 2018, published 2021)

B1: MTX1 (protein, UniProt Q13505 1-466, looked up)
Metaxin-1: MLLGGPPRSPRSGTSPKGPWSSTGHVQFGKSPQTWPRRTRPRSPEPAAPSGVRGSTWTRRRDSPRRAGPTALSRYVGHLWMGRRPPSPEARGPVPRSSAASRARRSLASPGISPGPLTATIGGAVAGGGPRQGRAEAHKEVFPGQRVGKMAAPMELFCWSGGWGLPSVDLDSLAVLTYARFTGAPLKVHKISNPWQSPSGTLPALRTSHGEVISVPHKIITHLRKEKYNADYDLSARQGADTLAFMSLLEEKLLPVLVHTFWIDTKNYVEVTRKWYAEAMPFPLNFFLPGRMQRQYMERLQLLTGEHRPEDEEELEKELYREARECLTLLSQRLGSQKFFFGDAPASLDAFVFSYLALLLQAKLPSGKLQVHLRGLHNLCAYCTHILSLYFPWDGAEVPPQRQTPAGPETEEEPYRRRNQILSVLAGLAAMVGYALLSGIVSIQRATPARAPGTRTLGMAEEDEEE
B2: MTX2 (protein, UniProt O75431 2-263, looked up)
Metaxin-2: SLVAEAFVSQIAAAEPWPENATLYQQLKGEQILLSDNAASLAVQAFLQMCNLPIKVVCRANAEYMSPSGKVPFIHVGNQVVSELGPIVQFVKAKGHSLSDGLEEVQKAEMKAYMELVNNMLLTAELYLQWCDEATVGEITHARYGSPYPWPLNHILAYQKQWEVKRKMKAIGWGKKTLDQVLEDVDQCCQALSQRLGTQPYFFNKQPTELDALVFGHLYTILTTQLTNDELSEKVKNYSNLLAFCRRIEQHYFEDRGKGRLS
B3: NIPSNAP1 (protein, UniProt Q9BPW8 36-284, looked up)
Protein NipSnap homolog 1: SKDNEGSWFRSLFVHKVDPRKDAHSTLLSKKETSNLYKIQFHNVKPEYLDAYNSLTEAVLPKLHLDEDYPCSLVGNWNTWYGEQDQAVHLWRFSGGYPALMDCMNKLKNNKEYLEFRRERSQMLLSRRNQLLLEFSFWNEPQPRMGPNIYELRTYKLKPGTMIEWGNNWARAIKYRQENQEAVGGFFSQIGELYVVHHLWAYKDLQSREETRNAAWRKRGWDENVYYTVPLVRHMESRIMIPLKISPLQ
B4: NT5DC2 (protein, UniProt Q9H857 1-520, looked up)
5'-nucleotidase …: MRVESGSAQERGILLESLSTLLEKTTASHEGRAPGNRELTDLLPPEVCSLLNPAAIYANNEISLRDVEVYGFDYDYTLAQYADALHPEIFSTARDILIEHYKYPEGIRKYDYNPSFAIRGLHYDIQKSLLMKIDAFHYVQLGTAYRGLQPVPDEEVIELYGGTQHIPLYQMSGFYGKGPSIKQFMDIFSLPEMALLSCVVDYFLGHSLEFDQAHLYKDVTDAIRDVHVKGLMYQWIEQDMEKYILRGDETFAVLSRLVAHGKQLFLITNSPFSFVDKGMRHMVGPDWRQLFDVVIVQADKPSFFTDRRKPFRKLDEKGSLQWDRITRLEKGKIYRQGNLFDFLRLTEWRGPRVLYFGDHLYSDLADLMLRHGWRTGAIIPELEREIRIINTEQYMHSLTWQQALTGLLERMQTYQDAESRQVLAAWMKERQELRCITKALFNAQFGSIFRTFHNPTYFSRRLVRFSDLYMASLSCLLNYRVDFTFYPRRTPLQHEAPLWMDQLCTGCMKTPFLGDMAHIR
B5: OGDH (protein, UniProt Q02218 41-1023, looked up)
2-oxoglutarate dehydrogenase …: SAPVAAEPFLSGTSSNYVEEMYCAWLENPKSVHKSWDIFFRNTNAGAPPGTAYQSPLPLSRGSLAAVAHAQSLVEAQPNVDKLVEDHLAVQSLIRAYQIRGHHVAQLDPLGILDADLDSSVPADIISSTDKLGFYGLDESDLDKVFHLPTTTFIGGQESALPLREIIRRLEMAYCQHIGVEFMFINDLEQCQWIRQKFETPGIMQFTNEEKRTLLARLVRSTRFEEFLQRKWSSEKRFGLEGCEVLIPALKTIIDKSSENGVDYVIMGMPHRGRLNVLANVIRKELEQIFCQFDSKLEAADEGSGDVKYHLGMYHRRINRVTDRNITLSLVANPSHLEAADPVVMGKTKAEQFYCGDTEGKKVMSILLHGDAAFAGQGIVYETFHLSDLPSYTTHGTVHVVVNNQIGFTTDPRMARSSPYPTDVARVVNAPIFHVNSDDPEAVMYVCKVAAEWRSTFHKDVVVDLVCYRRNGHNEMDEPMFTQPLMYKQIRKQKPVLQKYAELLVSQGVVNQPEYEEEISKYDKICEEAFARSKDEKILHIKHWLDSPWPGFFTLDGQPRSMSCPSTGLTEDILTHIGNVASSVPVENFTIHGGLSRILKTRGEMVKNRTVDWALAEYMAFGSLLKEGIHIRLSGQDVERGTFSHRHHVLHDQNVDKRTCIPMNHLWPNQAPYTVCNSSLSEYGVLGFELGFAMASPNALVLWEAQFGDFHNTAQCIIDQFICPGQAKWVRQNGIVLLLPHGMEGMGPEHSSARPERFLQMCNDDPDVLPDLKEANFDINQLYDCNWVVVNCSTPGNFFHVLRRQILLPFRKPLIIFTPKSLLRHPEARSSFDEMLPGTHFQRVIPEDGPAAQNPENVKRLLFCTGKVYYDLTRERKARDMVGQVAITRIEQLSPFPFDLLLKEVQKYPNAELAWCQEEHKNQGYYDYVKPRLRTTISRAKPVWYAGRDPAAAPATGNKKTHLTELQRLLDTAFDLDVFKNFS
B6: PAM16 (protein, UniProt Q9Y3D7 1-125, looked up)
Mitochondrial import inner …: MAKYLAQIIVMGVQVVGRAFARALRQEFAASRAAADARGRAGHRSAAASNLSGLSLQEAQQILNVSKLSPEEVQKNYEHLFKVNDKSVGGSFYLQSKVVRAKERLDEELKIQAQEDREKGQMPHT
B7: PCCB (protein, UniProt P05166 29-539, looked up)
Propionyl-CoA carboxylase …: CSQATSVNERIENKRRTALLGGGQRRIDAQHKRGKLTARERISLLLDPGSFVESDMFVEHRCADFGMAADKNKFPGDSVVTGRGRINGRLVYVFSQDFTVFGGSLSGAHAQKICKIMDQAITVGAPVIGLNDSGGARIQEGVESLAGYADIFLRNVTASGVIPQISLIMGPCAGGAVYSPALTDFTFMVKDTSYLFITGPDVVKSVTNEDVTQEELGGAKTHTTMSGVAHRAFENDVDALCNLRDFFNYLPLSSQDPAPVRECHDPSDRLVPELDTIVPLESTKAYNMVDIIHSVVDEREFFEIMPNYAKNIIVGFARMNGRTVGIVGNQPKVASGCLDINSSVKGARFVRFCDAFNIPLITFVDVPGFLPGTAQEYGGIIRHGAKLLYAFAEATVPKVTVITRKAYGGAYDVMSSKHLCGDTNYAWPTAEIAVMGAKGAVEIIFKGHENVEAAQAEYIEKFANPFPAAVRGFVDDIIQPSSTRARICCDLDVLASKKVQRPWRKHANIPL
B8: PCK2 (protein, UniProt Q16822 33-640, looked up)
Phosphoenolpyruvate …: LSGDLGQLPTGIRDFVEHSARLCQPEGIHICDGTEAENTATLTLLEQQGLIRKLPKYNNCWLARTDPKDVARVESKTVIVTPSQRDTVPLPPGGARGQLGNWMSPADFQRAVDERFPGCMQGRTMYVLPFSMGPVGSPLSRIGVQLTDSAYVVASMRIMTRLGTPVLQALGDGDFVKCLHSVGQPLTGQGEPVSQWPCNPEKTLIGHVPDQREIISFGSGYGGNSLLGKKCFALRIASRLARDEGWLAEHMLILGITSPAGKKRYVAAAFPSACGKTNLAMMRPALPGWKVECVGDDIAWMRFDSEGRLRAINPENGFFGVAPGTSATTNPNAMATIQSNTIFTNVAETSDGGVYWEGIDQPLPPGVTVTSWLGKPWKPGDKEPCAHPNSRFCAPARQCPIMDPAWEAPEGVPIDAIIFGGRRPKGVPLVYEAFNWRHGVFVGSAMRSESTAAAEHKGKIIMHDPFAMRPFFGYNFGHYLEHWLSMEGRKGAQLPRIFHVNWFRRDEAGHFLWPGFGENARVLDWICRRLEGEDSARETPIGLVPKEGALDLSGLRAIDTTQLFSLPKDFWEQEVRDIRSYLTEQVNQDLPKEVLAELEALERRVHKM
B9: PDE12 (protein, UniProt Q6L8Q7 43-609, looked up)
2',5'-phosphodiesterase 12: VPSEPKLSLSFALADGSHKNMQRDQSEPLGRVLSRIATNALKGHAKAAAAKKSRKSRPNASGGAACSGPGPEPAVFCEPVVKLYYREEAVAEDVLNVDAWQDGAVLQIGDVKYKVERNPPAFTELQLPRYIMAGFPVCPKLSLEFGDPASSLFRWYKEAKPGAAEPEVGVPSSLSPSSPSSSWTETDVEERVYTPSNADIGLRLKLHCTPGDGQRFGHSRELESVCVVEAGPGTCTFDHRHLYTKKVTEDALIRTVSYNILADTYAQTEFSRTVLYPYCAPYALELDYRQNLIQKELTGYNADVICLQEVDRAVFSDSLVPALEAFGLEGVFRIKQHEGLATFYRKSKFSLLSQHDISFYEALESDPLHKELLEKLVLYPSAQEKVLQRSSVLQVSVLQSTKDSSKRICVANTHLYWHPKGGYIRLIQMAVALAHIRHVSCDLYPGIPVIFCGDFNSTPSTGMYHFVINGSIPEDHEDWASNGEEERCNMSLTHFFKLKSACGEPAYTNYVGGFHGCLDYIFIDLNALEVEQVIPLPSHEEVTTHQALPSVSHPSDHIALVCDLKWK
B10: PGAM5 (protein, UniProt Q96HS1 1-289, looked up)
Serine/threonine-protein …: MAFRQALQLAACGLAGGSAAVLFSAVAVGKPRAGGDAEPRPAEPPAWAGGARPGPGVWDPNWDRREPLSLINVRKRNVESGEEELASKLDHYKAKATRHIFLIRHSQYHVDGSLEKDRTLTPLGREQAELTGLRLASLGLKFNKIVHSSMTRAIETTDIISRHLPGVCKVSTDLLREGAPIEPDPPVSHWKPEAVQYYEDGARIEAAFRNYIHRADARQEEDSYEIFICHANVIRYIVCRALQFPPEGWLRLSLNNGSITHLVIRPNGRVALRTLGDTGFMPPDKITRS
B11: PHB (protein, UniProt P35232 2-272, looked up)
Prohibitin 1: AAKVFESIGKFGLALAVAGGVVNSALYNVDAGHRAVIFDRFRGVQDIVVGEGTHFLIPWVQKPIIFDCRSRPRNVPVITGSKDLQNVNITLRILFRPVASQLPRIFTSIGEDYDERVLPSITTEILKSVVARFDAGELITQRELVSRQVSDDLTERAATFGLILDDVSLTHLTFGKEFTEAVEAKQVAQQEAERARFVVEKAEQQKKAAIISAEGDSKAAELIANSLATAGDGLIELRKLEAAEDIAYQLSRSRNITYLPAGQSVLLQLPQ

tested on: mitochondrial proteins of HEK293 T-REx cells; test: Mitochondrial proteome profiling for WT and CLPP^−/− (fold change CLPP^−/−/WT); set-up: species or system human; details: […]; MaxQuant total peptide ion intensity

| Molecule | Avg. fold change (CLPP KO/WT) |
| --- | --- |
| B1 | −3.88 |
| B2 | 3.29 |

same assay, conditions: fold change of mitochondrial protein detected in CLPP knockout compared to WT HEK293 T-REx cells; MaxQuant total peptide ion intensity

| Molecule | Avg. fold change (CLPP KO/WT) |
| --- | --- |
| B3 | −3.19 |
| B4 | 2.48 |
| B5 | −1.85 |
| B6 | −1.57 |
| B7 | −26.16 |
| B8 | −5.13 |
| B9 | −3.68 |
| B10 | −1.97 |
| B11 | 1.54 |
